The values below come from article PMC4673280.

Chains of the proteins cited; added tags and fusions are not shown.
UniProt P23804: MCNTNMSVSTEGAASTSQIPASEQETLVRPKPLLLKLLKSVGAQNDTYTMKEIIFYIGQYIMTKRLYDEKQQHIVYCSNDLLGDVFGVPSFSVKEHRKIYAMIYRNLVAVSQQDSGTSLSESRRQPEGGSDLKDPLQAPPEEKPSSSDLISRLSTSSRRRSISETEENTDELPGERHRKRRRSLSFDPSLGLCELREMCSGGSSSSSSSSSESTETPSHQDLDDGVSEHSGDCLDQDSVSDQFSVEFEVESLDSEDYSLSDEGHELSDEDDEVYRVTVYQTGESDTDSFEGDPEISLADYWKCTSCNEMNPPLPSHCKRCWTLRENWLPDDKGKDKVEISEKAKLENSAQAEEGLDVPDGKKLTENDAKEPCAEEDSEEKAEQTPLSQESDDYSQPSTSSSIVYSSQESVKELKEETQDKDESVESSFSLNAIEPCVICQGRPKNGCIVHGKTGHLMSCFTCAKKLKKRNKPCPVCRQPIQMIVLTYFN
UniProt Q8C863: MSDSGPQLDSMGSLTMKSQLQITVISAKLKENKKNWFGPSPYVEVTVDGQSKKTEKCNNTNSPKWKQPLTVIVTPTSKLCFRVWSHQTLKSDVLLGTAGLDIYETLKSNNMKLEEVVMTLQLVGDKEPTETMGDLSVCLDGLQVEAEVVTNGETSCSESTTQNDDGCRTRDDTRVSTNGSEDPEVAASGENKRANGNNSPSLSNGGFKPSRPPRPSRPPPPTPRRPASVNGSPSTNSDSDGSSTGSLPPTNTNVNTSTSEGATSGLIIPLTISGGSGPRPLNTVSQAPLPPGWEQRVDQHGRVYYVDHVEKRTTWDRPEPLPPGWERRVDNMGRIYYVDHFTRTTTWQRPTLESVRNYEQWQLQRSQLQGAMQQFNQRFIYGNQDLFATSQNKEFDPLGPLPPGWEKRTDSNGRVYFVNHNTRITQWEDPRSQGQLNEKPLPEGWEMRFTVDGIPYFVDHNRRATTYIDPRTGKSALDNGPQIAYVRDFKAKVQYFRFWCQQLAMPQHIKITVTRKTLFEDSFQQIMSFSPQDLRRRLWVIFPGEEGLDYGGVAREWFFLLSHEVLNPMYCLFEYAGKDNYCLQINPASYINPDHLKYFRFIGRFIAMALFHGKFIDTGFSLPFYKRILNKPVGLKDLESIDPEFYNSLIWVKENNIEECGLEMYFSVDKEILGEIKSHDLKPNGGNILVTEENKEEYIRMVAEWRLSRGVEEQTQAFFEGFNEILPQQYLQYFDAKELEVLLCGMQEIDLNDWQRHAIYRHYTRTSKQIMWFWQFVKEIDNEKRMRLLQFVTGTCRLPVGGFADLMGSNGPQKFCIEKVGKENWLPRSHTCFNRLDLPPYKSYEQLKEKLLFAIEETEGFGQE
UniProt Q00987: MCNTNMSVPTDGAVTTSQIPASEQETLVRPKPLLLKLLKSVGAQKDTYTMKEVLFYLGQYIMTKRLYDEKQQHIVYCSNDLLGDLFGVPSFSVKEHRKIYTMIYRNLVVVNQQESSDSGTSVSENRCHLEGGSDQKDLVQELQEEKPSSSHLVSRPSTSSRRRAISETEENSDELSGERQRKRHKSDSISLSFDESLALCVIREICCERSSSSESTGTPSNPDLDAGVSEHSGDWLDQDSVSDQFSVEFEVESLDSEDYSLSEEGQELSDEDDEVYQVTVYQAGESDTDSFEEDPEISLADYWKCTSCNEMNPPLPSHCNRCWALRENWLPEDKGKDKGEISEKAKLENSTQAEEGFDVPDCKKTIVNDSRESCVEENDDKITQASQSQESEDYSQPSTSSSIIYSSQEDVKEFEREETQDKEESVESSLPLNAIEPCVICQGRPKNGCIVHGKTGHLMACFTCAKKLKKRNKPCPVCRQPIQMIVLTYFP

Assay [1] has as its target Mdm2 (mouse, transfected into MEFs) (mouse) (UniProt P23804). The experiment in a line: co-IP; wild type MEFs transfected with an Mdm2 plasmid, MG132 (20 uM) for 6 hours before harvest; IP with anti-Mdm2 or anti-Itch, Western blot.
Assay [2] shares this target. As to the kind of experiment: co-IP; Mdm2-null MEFs transfected with an Mdm2 plasmid, MG132 (20 uM) for 6 hours before harvest; IP with anti-Mdm2 or anti-Itch, Western blot. Background: In western blotting, separated proteins are transferred to a membrane and probed.
The target of assay [3] is T1, p73 (endogenous, HEK293 cells) (human (endogenous in HEK293)) (UniProt O15350).
T1 sequence: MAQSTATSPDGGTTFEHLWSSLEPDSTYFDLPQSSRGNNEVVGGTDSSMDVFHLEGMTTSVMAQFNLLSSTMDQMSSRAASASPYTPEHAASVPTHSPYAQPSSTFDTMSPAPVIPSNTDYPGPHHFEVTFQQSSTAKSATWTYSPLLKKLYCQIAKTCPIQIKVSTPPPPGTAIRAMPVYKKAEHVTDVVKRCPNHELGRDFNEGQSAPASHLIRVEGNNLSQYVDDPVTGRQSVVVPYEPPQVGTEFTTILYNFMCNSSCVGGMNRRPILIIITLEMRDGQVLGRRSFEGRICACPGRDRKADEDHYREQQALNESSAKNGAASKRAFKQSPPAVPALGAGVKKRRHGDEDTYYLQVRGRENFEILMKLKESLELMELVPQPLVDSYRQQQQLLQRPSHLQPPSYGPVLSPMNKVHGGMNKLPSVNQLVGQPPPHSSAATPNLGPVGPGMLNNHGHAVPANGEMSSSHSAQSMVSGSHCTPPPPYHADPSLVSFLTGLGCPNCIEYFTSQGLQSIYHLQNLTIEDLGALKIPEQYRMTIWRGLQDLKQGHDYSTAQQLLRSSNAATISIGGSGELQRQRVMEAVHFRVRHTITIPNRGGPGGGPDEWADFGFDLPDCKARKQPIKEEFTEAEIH
As to the kind of experiment: co-IP; endogenous proteins, extracts of HEK293 cells; IP with anti-MDM2 (SMP14) or anti-p73 (ER-15), control mouse IgG; lysis buffer 50 mM Tris-HCl pH 8.0, 5 mM EDTA, 150 mM NaCl, 0.5% NP-40; Western blot.

Results are given in words; binding and its absence hold for the method and conditions named. In cells and extracts the contact can be indirect. Some results given as binding are weak or reduced against the parent protein; the word gives no strength.

With “Itch (endogenous, MEFs) (from UniProt Q8C863 1-864)”, the binding entry in assay [1] is “binds weakly”; in assay [2], “binds”.

As for “MDM2 (endogenous, HEK293 cells) (from UniProt Q00987 1-491)”, the binding result in assay [3] is on record as “binds”.
